Assay results reported in patent US20100099118A1, “METHODS OF D[…] PON1 LEVEL” (priority 2007, published 2010).
Some results were stated once for a whole list of compounds, not compound by compound.

Test system: PON1
Test: Inhibition of TBBL and DEPCyMC activity in sera
Type: biochemical, human
Conditions: 2-hydroxyquinoline 0.1 mM

With `Oc1ccc2ccccc2n1` [2-hydroxyquinoline] the “Inhibition of DEPCyMC activity in sera” value was ≥ 92% and the “Inhibition of TBBL activity in sera” value was ≥ 92%.
